Library screen at single concentrations

Values are the deposited “Percent Effect”, in %. The controls that fix the scale are not given in the record; negative values are as filed. Compounds were drawn at random from those tested, without regard to their results.

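Whole-parasite assay of Trypanosoma brucei over 72 hours; the read-out is not stated. Tested at 30 µM. The record gives no direction; compounds that gave an IC50 in retests scored well above the rest, so higher reads as stronger inhibition. Values scatter widely below zero; nearly all retest evidence comes from the higher of the two concentrations used. Of about 64,000 compounds tested this way, about 940 (1.5%) reached 50% or more in at least one test.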

compound,effect
Cc1cccc(CN2CCc3c(nc(N4CCC(C)CC4)[nH]c3=O)C2)n1,18.03
CCCNC(=O)c1cc(Br)c2c(c1)OCCO2,1.047
[H][C@@]12OCCN(C(=O)c3ccc(C)o3)[C@@]1([H])CC[C@H]2OCC,-74.68
CN(CC1(O)CCCCC1)C1CCCN(Cc2noc(C3CC3)n2)C1 (stereo unspecified),-36.54
Cn1ccc(C(=O)N2CCN(c3ncccn3)CC2)cc1=O,-8.224
[H][C@@]12COC[C@]1(COc1ccc(C#N)cn1)CN(Cc1ccccn1)C2,-25.75
O=C1NCCCCC1Sc1nnc(N2CCCC2)n1C1CC1 (stereo unspecified),-84.21
CN(C)c1ncc(CN2CCOC(C(=O)Nc3ccccc3)C2)cn1 (stereo unspecified),16.81
CN(CC1(CO)CCC1)C(=O)C1CCC(=O)N(Cc2ccc(Cl)cc2)C1 (stereo unspecified),3.48
CCc1n[nH]c(C(=O)N2CCC3(CCCN(CCOC)C3=O)C2)c1C (stereo unspecified),-7.642
CC(C)(C)c1cn2nc(N3CCCC(Cn4cncn4)C3)sc2n1 (stereo unspecified),-15.68
CCc1ccc2occ(CC(=O)N3CCC4(CCCN(C)C4=O)C3)c2c1 (stereo unspecified),-22.77
CCc1noc(C2CCN(C(=O)CCn3nc(C)cc3C)CC2)n1,0.644
CN1CCC(c2n[nH]c3ncccc23)C1.O=CO (stereo unspecified),6.5
O=C(NCCN1CCCc2ccccc21)c1scnc1Cl,-2.803
COCCN1CC(c2nc(CC3CCN(C)CC3)no2)CCC1=O (stereo unspecified),14.51
CCS(=O)(=O)N1Cc2ncn(CC3CC3)c2C(COCC2CC2)C1.O=C(O)C(F)(F)F (stereo unspecified),-50.9
COCCCC1CCCCN1Cc1cnn(C)c1C1CC1 (stereo unspecified),-12.87
O=C(Nc1ccccc1OCC(F)F)N[C@@H]1C=C[C@H](CO)C1,-41.39
Cc1cc(C)c(CNC(=O)N2CCCN(C(=O)C(C)C)CC2)c(C)c1,35.35
Cc1cc(CS(=O)(=O)c2ccccc2)no1,-0.09308
[H][C@@]12C[C@H](C(=O)NC(C)C)[C@@]([H])(CN(C(=O)Nc3ccc(CC)cc3)C1)O2,-16.83
O=S(=O)(c1cccs1)N1CCN(Cc2nc(-c3ccco3)cs2)CC1,-3.833
CN(CCCc1nccn1C)c1nccc(N2CCC(O)C2)n1 (stereo unspecified),-43.51
Br.Cc1ccc(C(=O)CN(C2=NCCCCC2)c2ccccc2)cc1,-7.636
COc1ccccc1CN(Cc1cccc(C)c1)C(=O)[C@@H](N)CC(=O)O,-39.71
CCN1CC2(CCOCC2)c2cc(NS(=O)(=O)CC)ccc21.O=C(O)C(F)(F)F,11.79
[H][C@@]12CS(=O)(=O)C[C@]1([H])N(S(=O)(=O)N1CCC(OC)CC1)CCN2CC,-23.79
CN(Cc1ccccc1)C(=O)Cn1nc(N2CCSCC2)ccc1=O,-10.74
COc1ccc(-c2ccc(C(=O)N3CCOCC3CC(N)=O)o2)cc1 (stereo unspecified),-22.18
O=C(O)C(F)(F)F.O=C(O)C(F)(F)F.O=C1N(c2cncnc2)CCC12CCCN(Cc1ccccn1)C2 (stereo unspecified),-20.95
Cc1cnc(C(=O)NCc2cccnc2OC(C)C)cn1,-32.19
CN(C)CCN(CC1CCCO1)S(=O)(=O)NCc1ccccc1 (stereo unspecified),-13.26
OCCOc1ccc(NCc2cc(F)cc3cccnc23)cn1,-34.9
[H][C@]12CC[C@]([H])(CN(c3nnc(C(C)C)s3)C1)N(Cc1ccccc1)C2,-23.33
Cn1cnnc1CCNC(=O)c1cnn(Cc2ccccc2)c1,-7.7
O=C(O)C(F)(F)F.O=C(O)C(F)(F)F.[H][C@@]12COC[C@]1(CN1CCOCC1)CN(Cc1cccc(OC)c1)C2,25.73
COc1cccc(CN(C)C(=O)CN2CCN(CCO)CC2)c1,-11.76
Cc1nnc(N2CCCC(C(=O)c3cccc(Cl)c3)C2)o1 (stereo unspecified),-2.386
CC(CCSc1ccccc1)N1CCN(C(=O)c2cccs2)CC1 (stereo unspecified),-98.06
Cc1n[nH]c(C2CN(CC(=O)NCc3cccs3)CCO2)n1 (stereo unspecified),-22.48
CCOC(=O)CCNC(=O)N1CCCC(CNC(=O)c2cccs2)C1 (stereo unspecified),2.994
COc1cc(Oc2ccc(C(N)=O)cn2)ccc1CN1CCCC1,-68.69
Fc1cnc(N2CCC3(CC2)CN(Cc2cccs2)CCO3)nc1.O=C(O)C(F)(F)F.O=C(O)C(F)(F)F,-2.415
CNC(=O)COc1ccc(CNCc2ccc(F)cc2F)cc1,4.908
CNC(=O)c1ccc(-c2ccc(CNS(=O)(=O)N(C)C)cc2)nc1C,-17.77
CCCn1nnnc1CN1Cc2ccccc2CC1c1nnc(C)o1 (stereo unspecified),1.526

Once more, the final 4:

compound,effect
Fc1cnc(N2CCC3(CC2)CN(Cc2cccs2)CCO3)nc1.O=C(O)C(F)(F)F.O=C(O)C(F)(F)F,-2.415
CNC(=O)COc1ccc(CNCc2ccc(F)cc2F)cc1,4.908
CNC(=O)c1ccc(-c2ccc(CNS(=O)(=O)N(C)C)cc2)nc1C,-17.77
CCCn1nnnc1CN1Cc2ccccc2CC1c1nnc(C)o1 (stereo unspecified),1.526

From ChEMBL document CHEMBL3988442, “University of Dundee, Small-Polar-MMV Screening Library” (2021).